Measured values from PMC4762426.
No constants are given. Whether binding was seen depends on the method and setting. In cells and extracts the contact can be indirect. A yes stands for co-enrichment or nearness to the bait. Other partners may have been found.

The chains behind the UniProt entries cited, without tags or fusion partners.
UniProt O94762: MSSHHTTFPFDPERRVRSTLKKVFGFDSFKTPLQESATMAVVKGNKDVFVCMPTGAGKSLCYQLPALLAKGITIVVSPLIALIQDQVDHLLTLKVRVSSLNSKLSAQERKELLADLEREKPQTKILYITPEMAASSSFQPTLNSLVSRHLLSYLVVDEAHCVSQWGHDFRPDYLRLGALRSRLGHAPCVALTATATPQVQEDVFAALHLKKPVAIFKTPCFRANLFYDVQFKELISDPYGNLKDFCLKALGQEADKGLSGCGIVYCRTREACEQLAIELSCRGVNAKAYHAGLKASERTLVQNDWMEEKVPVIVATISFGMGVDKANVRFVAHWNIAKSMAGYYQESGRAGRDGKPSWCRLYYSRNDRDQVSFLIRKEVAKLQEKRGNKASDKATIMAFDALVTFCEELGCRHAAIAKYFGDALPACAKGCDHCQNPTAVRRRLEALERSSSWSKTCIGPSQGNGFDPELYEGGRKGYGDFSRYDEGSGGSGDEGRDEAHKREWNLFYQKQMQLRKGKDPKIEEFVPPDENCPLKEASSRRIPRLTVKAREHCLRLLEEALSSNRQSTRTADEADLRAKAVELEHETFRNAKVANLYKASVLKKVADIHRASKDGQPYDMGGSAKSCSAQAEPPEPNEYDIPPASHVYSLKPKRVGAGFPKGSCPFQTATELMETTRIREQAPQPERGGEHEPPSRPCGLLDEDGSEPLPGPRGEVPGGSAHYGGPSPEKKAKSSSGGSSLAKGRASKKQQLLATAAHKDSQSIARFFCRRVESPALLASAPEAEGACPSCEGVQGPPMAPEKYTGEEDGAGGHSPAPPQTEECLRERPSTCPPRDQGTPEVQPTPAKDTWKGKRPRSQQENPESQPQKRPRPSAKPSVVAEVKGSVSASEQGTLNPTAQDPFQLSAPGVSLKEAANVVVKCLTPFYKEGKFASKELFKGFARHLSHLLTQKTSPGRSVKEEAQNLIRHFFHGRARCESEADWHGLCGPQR
UniProt Q6ZW49: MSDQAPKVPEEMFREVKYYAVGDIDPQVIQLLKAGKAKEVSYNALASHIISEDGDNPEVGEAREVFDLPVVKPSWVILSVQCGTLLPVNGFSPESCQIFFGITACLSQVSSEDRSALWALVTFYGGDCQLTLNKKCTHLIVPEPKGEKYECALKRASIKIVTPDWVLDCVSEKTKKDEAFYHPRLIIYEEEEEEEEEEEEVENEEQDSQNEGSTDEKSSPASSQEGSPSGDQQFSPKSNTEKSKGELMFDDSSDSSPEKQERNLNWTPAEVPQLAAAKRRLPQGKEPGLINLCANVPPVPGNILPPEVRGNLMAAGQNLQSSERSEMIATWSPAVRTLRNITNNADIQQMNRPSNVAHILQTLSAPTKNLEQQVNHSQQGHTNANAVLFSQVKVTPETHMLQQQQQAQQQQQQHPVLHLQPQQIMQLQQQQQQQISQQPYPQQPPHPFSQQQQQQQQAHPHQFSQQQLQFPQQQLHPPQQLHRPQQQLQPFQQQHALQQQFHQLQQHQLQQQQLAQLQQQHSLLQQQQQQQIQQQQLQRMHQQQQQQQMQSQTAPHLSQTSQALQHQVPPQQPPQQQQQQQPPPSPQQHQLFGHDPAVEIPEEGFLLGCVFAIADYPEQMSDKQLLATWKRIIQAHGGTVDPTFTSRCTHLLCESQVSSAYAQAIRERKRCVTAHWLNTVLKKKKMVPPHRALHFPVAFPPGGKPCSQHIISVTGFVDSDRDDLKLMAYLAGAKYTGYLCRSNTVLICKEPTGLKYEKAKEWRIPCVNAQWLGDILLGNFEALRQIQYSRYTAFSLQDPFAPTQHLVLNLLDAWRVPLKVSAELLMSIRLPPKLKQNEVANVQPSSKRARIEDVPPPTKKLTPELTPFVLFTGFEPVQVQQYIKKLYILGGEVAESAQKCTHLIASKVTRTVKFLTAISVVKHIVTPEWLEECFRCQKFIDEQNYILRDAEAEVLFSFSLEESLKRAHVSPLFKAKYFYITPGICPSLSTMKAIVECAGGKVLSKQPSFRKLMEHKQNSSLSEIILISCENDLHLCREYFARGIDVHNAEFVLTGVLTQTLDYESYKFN

Molecular target: Flag-tagged RECQL5 (UniProt O94762)
Test: affinity purification with mass spectrometry; Flag-RECQL5 purification, subsequent high-sensitivity mass spectroscopy analysis (Supplemental Fig. S1B, Table S2)

With PTIP (from UniProt Q6ZW49 1-1069) the binding was “binds”.
